# Laboratory results reported in the supplement of paper PMC11264405.
# Legend:
# Assay in all cases: minimum inhibitory concentration
# vancomycin = compound: CN[C@H](CC(C)C)C(=O)N[C@H]1C(=O)N[C@@H](CC(N)=O)C(=O)N[C@H]2C(=O)N[C@H]3C(=O)N[C@H](C(=O)N[C@H](C(=O)O)c4cc(O)cc(O)c4-c4cc3ccc4O)[C@H](O)c3ccc(c(Cl)c3)Oc3cc2cc(c3O[C@@H]2O[C@H](CO)[C@@H](O)[C@H](O)[C@H]2O[C@H]2C[C@](C)(N)[C@H](O)[C@H](C)O2)Oc2ccc(cc2Cl)[C@H]1O [vancomycin]
# clindamycin = compound: CCC[C@@H]1C[C@@H](C(=O)N[C@@H]([C@H]2O[C@H](SC)[C@H](O)[C@@H](O)[C@H]2O)[C@H](C)Cl)N(C)C1 [clindamycin]
# tigecycline = compound: CN(C)c1cc(NC(=O)CNC(C)(C)C)c(O)c2c1C[C@H]1C[C@H]3[C@H](N(C)C)C(O)=C(C(N)=O)C(=O)[C@@]3(O)C(O)=C1C2=O [tigecycline]
# fidaxomicin = compound: CCc1c(Cl)c(O)c(Cl)c(O)c1C(=O)O[C@H]1[C@H](O)[C@H](OC)[C@H](OC/C2=C\C=C\C[C@H](O)/C(C)=C/[C@H](CC)[C@@H](O[C@@H]3OC(C)(C)[C@@H](OC(=O)C(C)C)[C@H](O)[C@@H]3O)/C(C)=C/C(C)=C/C[C@@H]([C@@H](C)O)OC2=O)O[C@@H]1C [fidaxomicin]
# linezolid = compound: CC(=O)NC[C@H]1CN(c2ccc(N3CCOCC3)c(F)c2)C(=O)O1 [linezolid]
# metronidazole = compound: Cc1ncc([N+](=O)[O-])n1CCO [metronidazole]
# rifampicin = compound: CO[C@H]1/C=C/O[C@@]2(C)Oc3c(C)c(O)c4c(O)c(c(/C=N/N5CCN(C)CC5)c(O)c4c3C2=O)NC(=O)/C(C)=C\C=C\[C@H](C)[C@H](O)[C@@H](C)[C@@H](O)[C@@H](C)[C@H](OC(C)=O)[C@@H]1C [rifampicin]
# imipenem = compound: C[C@@H](O)[C@H]1C(=O)N2C(C(=O)O)=C(SCCNC=N)C[C@H]12 [imipenem]
# meropenem = compound: C[C@@H](O)[C@H]1C(=O)N2C(C(=O)O)=C(S[C@@H]3CN[C@H](C(=O)N(C)C)C3)[C@H](C)[C@H]12 [meropenem]
Test System,minimum inhibitory concentration (vancomycin) [µg/mL],minimum inhibitory concentration (clindamycin) [µg/mL],minimum inhibitory concentration (tigecycline) [µg/mL],minimum inhibitory concentration (fidaxomicin) [µg/mL],minimum inhibitory concentration (linezolid) [µg/mL],minimum inhibitory concentration (metronidazole) [µg/mL],minimum inhibitory concentration (rifampicin) [µg/mL],minimum inhibitory concentration (imipenem) [µg/mL],minimum inhibitory concentration (meropenem) [µg/mL]
"Clostridioides difficile PCR ribotype 039 isolate #159 (European region: South, country: Spain, isolate source: Human, ribotype: 039)",0.5,4,< 0.03,0.03,2,0.25,0.002,4,4
"Clostridioides difficile PCR ribotype 039 isolate #160 (European region: East, country: Poland, isolate source: Human, ribotype: 039)",0.5,> 128,0.06,0.03,2,0.25,< 0.001,4,4
"Clostridioides difficile PCR ribotype 045 isolate #161 (European region: East, country: Poland, isolate source: Human, ribotype: 045)",0.5,> 128,< 0.03,0.004,2,< 0.125,< 0.001,2,2
"Clostridioides difficile PCR ribotype 045 isolate #314 (European region: East, country: Slovakia, isolate source: Animal, ribotype: 045)",1,> 128,< 0.03,0.004,2,0.25,< 0.001,2,2
"Clostridioides difficile PCR ribotype 045 isolate #315 (European region: East, country: Slovakia, isolate source: Animal, ribotype: 045)",0.5,1,0.06,0.008,4,< 0.125,< 0.001,4,2
"Clostridioides difficile PCR ribotype 045 isolate #316 (European region: East, country: Slovakia, isolate source: Animal, ribotype: 045)",0.5,> 128,0.06,0.008,4,< 0.125,< 0.001,4,2
"Clostridioides difficile PCR ribotype 045 isolate #317 (European region: East, country: Slovakia, isolate source: Animal, ribotype: 045)",1,> 128,< 0.03,0.008,2,0.25,< 0.001,2,2
"Clostridioides difficile PCR ribotype 045 isolate #318 (European region: East, country: Slovakia, isolate source: Animal, ribotype: 045)",1,> 128,< 0.03,0.008,2,0.25,< 0.001,2,2
"Clostridioides difficile PCR ribotype 045 isolate #319 (European region: East, country: Slovakia, isolate source: Animal, ribotype: 045)",1,> 128,< 0.03,0.004,2,0.25,< 0.001,2,2
"Clostridioides difficile PCR ribotype 045 isolate #320 (European region: East, country: Slovakia, isolate source: Animal, ribotype: 045)",0.5,> 128,0.06,0.008,4,< 0.125,< 0.001,2,2
"Clostridioides difficile PCR ribotype 045 isolate #321 (European region: East, country: Slovakia, isolate source: Animal, ribotype: 045)",0.5,> 128,0.06,0.004,2,< 0.125,< 0.001,1,2
"Clostridioides difficile PCR ribotype 045 isolate #322 (European region: West, country: Netherlands, isolate source: Animal, ribotype: 045)",0.5,2,0.06,0.008,2,< 0.125,< 0.001,1,2
"Clostridioides difficile PCR ribotype 045 isolate #323 (European region: East, country: Poland, isolate source: Animal, ribotype: 045)",0.5,> 128,0.06,0.008,4,0.25,< 0.001,2,2
"Clostridioides difficile PCR ribotype 046 isolate #162 (European region: North, country: UK, isolate source: Human, ribotype: 046)",0.5,8,0.06,0.008,2,< 0.125,< 0.001,4,4
"Clostridioides difficile PCR ribotype 046 isolate #163 (European region: South, country: Spain, isolate source: Human, ribotype: 046)",0.5,64,0.06,0.03,2,0.25,< 0.001,4,2
"Clostridioides difficile PCR ribotype 046 isolate #164 (European region: South, country: Spain, isolate source: Human, ribotype: 046)",0.5,16,0.06,0.06,2,0.25,< 0.001,4,2
"Clostridioides difficile PCR ribotype 046 isolate #165 (European region: South, country: Spain, isolate source: Human, ribotype: 046)",1,64,0.06,0.008,2,0.25,< 0.001,4,4
"Clostridioides difficile PCR ribotype 046 isolate #166 (European region: North, country: UK, isolate source: Human, ribotype: 046)",0.5,> 128,0.06,0.03,2,< 0.125,< 0.001,4,2
"Clostridioides difficile PCR ribotype 046 isolate #324 (European region: South, country: Spain, isolate source: Animal, ribotype: 046)",0.5,0.5,0.06,0.06,2,0.25,< 0.001,1,4
"Clostridioides difficile PCR ribotype 046 isolate #325 (European region: North, country: Sweden, isolate source: Animal, ribotype: 046)",0.5,8,0.125,0.03,2,< 0.125,< 0.001,2,4
"Clostridioides difficile PCR ribotype 046 isolate #326 (European region: North, country: Sweden, isolate source: Animal, ribotype: 046)",1,16,0.125,0.03,2,< 0.125,< 0.001,2,4
"Clostridioides difficile PCR ribotype 050 isolate #167 (European region: North, country: UK, isolate source: Human, ribotype: 050)",0.5,8,< 0.03,0.008,2,< 0.125,< 0.001,2,2
"Clostridioides difficile PCR ribotype 050 isolate #328 (European region: South, country: Italy, isolate source: Animal, ribotype: 050)",0.5,8,0.125,0.03,2,< 0.125,< 0.001,2,4
"Clostridioides difficile PCR ribotype 057 isolate #168 (European region: South, country: Spain, isolate source: Human, ribotype: 057)",1,16,< 0.03,0.03,2,< 0.125,0.002,4,4
"Clostridioides difficile PCR ribotype 057 isolate #329 (European region: West, country: Netherlands, isolate source: Animal, ribotype: 057)",0.5,64,< 0.03,0.015,2,0.25,< 0.001,2,2
"Clostridioides difficile PCR ribotype 057 isolate #330 (European region: West, country: France, isolate source: Animal, ribotype: 057)",0.5,8,< 0.03,0.06,2,0.25,< 0.001,2,4

# Only minimum inhibitory concentration (linezolid) [µg/mL], minimum inhibitory concentration (rifampicin) [µg/mL] and minimum inhibitory concentration (vancomycin) [µg/mL] (2 entries from above):
Test System | minimum inhibitory concentration (linezolid) [µg/mL] | minimum inhibitory concentration (rifampicin) [µg/mL] | minimum inhibitory concentration (vancomycin) [µg/mL]
Clostridioides difficile PCR ribotype 045 isolate #322 (European region: West, country: Netherlands, isolate source: Animal, ribotype: 045) | 2 | < 0.001 | 0.5
Clostridioides difficile PCR ribotype 046 isolate #324 (European region: South, country: Spain, isolate source: Animal, ribotype: 046) | 2 | < 0.001 | 0.5
